Measurements published in publication PMC3141063.
Results are given in words; binding and its absence hold for the method and conditions named. Binding seen in cells or lysates may run through a third protein. These calls come from enrichment with a bait or labelling near it, and not all partners need be listed. For some assays here: No binding means not detected with the bait.

The chains behind the UniProt entries cited, without tags or fusion partners. Where a name states a change or a piece, a line headed by the entry shows the natural chain unless it says otherwise.
UniProt Q583J0: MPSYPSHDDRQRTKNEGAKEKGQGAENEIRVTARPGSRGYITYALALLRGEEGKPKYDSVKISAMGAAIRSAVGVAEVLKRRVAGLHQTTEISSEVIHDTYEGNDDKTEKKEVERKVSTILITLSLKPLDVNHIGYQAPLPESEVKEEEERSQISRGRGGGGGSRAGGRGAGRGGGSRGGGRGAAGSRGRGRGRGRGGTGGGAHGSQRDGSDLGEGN
UniProt Q583I9: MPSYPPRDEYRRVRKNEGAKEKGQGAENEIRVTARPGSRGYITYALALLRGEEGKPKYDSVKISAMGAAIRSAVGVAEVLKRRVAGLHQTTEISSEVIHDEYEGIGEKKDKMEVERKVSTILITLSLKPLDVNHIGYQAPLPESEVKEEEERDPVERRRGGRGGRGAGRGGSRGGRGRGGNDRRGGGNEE
UniProt Q38E63: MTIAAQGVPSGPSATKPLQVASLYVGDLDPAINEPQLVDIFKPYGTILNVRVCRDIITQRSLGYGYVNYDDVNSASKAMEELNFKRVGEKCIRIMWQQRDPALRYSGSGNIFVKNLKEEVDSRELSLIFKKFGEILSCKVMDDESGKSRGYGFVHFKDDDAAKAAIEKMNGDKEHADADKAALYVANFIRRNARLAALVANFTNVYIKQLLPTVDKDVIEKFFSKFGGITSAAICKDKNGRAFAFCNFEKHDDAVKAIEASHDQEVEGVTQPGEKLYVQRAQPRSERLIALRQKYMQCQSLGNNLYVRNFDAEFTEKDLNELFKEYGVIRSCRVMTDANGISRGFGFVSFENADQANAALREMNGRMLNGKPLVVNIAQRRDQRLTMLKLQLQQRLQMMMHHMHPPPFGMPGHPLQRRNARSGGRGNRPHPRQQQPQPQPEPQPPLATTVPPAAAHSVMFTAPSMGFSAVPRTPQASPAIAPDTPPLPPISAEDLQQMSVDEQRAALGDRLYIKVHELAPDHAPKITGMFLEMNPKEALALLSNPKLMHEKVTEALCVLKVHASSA
UniProt Q38DU2: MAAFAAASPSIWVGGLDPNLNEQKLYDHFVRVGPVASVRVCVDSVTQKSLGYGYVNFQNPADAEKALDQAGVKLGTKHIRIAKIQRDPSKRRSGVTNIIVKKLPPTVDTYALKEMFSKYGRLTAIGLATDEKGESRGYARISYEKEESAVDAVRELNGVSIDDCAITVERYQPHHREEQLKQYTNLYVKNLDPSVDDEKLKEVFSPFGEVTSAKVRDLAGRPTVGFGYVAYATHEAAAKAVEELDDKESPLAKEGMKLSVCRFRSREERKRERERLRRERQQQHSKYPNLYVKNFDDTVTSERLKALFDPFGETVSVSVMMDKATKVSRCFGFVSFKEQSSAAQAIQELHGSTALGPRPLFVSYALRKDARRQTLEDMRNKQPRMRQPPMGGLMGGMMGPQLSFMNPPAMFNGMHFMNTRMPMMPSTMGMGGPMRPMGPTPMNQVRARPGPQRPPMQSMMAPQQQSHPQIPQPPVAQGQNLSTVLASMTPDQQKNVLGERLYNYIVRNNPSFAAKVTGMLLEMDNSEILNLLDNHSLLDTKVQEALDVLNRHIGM
UniProt Q585M4: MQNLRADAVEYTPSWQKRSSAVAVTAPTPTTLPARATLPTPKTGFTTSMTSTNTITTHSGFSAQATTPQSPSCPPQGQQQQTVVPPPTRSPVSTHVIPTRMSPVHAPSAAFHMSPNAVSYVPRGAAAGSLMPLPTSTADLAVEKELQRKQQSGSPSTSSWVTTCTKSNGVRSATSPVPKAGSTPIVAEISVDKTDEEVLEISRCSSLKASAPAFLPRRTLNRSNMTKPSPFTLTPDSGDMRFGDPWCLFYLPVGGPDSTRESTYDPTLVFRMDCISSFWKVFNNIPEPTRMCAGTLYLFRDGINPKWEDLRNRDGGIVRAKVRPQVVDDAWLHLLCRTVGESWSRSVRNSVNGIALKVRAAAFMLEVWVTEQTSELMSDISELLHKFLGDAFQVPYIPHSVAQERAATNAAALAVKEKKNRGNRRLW

Columns and labels:
Test in all cases: affinity purification with mass spectrometry; tandem affinity purification of N-terminally PTP-tagged Alba proteins (in situ tagged) from procyclic T. brucei extract under native conditions; TEV and EGTA eluates on SDS-PAGE, bands digested with trypsin, LC-MS/MS
[1] = target: T1, PTP-Alba2 (Trypanosoma brucei) (UniProt Q385X2)
T1 sequence: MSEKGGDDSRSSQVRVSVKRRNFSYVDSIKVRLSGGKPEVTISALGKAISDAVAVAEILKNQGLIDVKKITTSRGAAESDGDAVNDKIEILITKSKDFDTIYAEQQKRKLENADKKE

[2] = target: PTP-Alba4 (Trypanosoma brucei) (UniProt Q583J0)
[3] = target: T2, PTP-Alba1 (Trypanosoma brucei) (UniProt Q385X1)
T2 sequence: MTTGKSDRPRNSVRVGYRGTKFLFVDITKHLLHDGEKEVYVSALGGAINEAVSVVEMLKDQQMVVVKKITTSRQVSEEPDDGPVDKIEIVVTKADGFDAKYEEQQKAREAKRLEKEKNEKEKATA

[4] = target: PTP-Alba3 (Trypanosoma brucei) (UniProt Q583I9)

Substance	binding [1]	binding [2]	binding [3]	binding [4]
poly(A)-binding protein PABP1 (from UniProt Q38E63)	binds	binds	binds	binds
Alba4 (from UniProt Q583J0)	binds	–	binds	–
Scd6	no binding	–	no binding	–
poly(A)-binding protein PABP2 (from UniProt Q38DU2)	binds	binds	binds	binds
Alba3 (from UniProt Q583I9)	binds	–	binds	–
Eukaryotic translation initiation factor 4E4 (from UniProt Q585M4)	binds	–	–	–
DHH1	no binding	–	no binding	–
